In PubChem BioAssay AID1487 (National Center for Advancing Translational Sciences (NCATS), 2009):
The other results are listed elsewhere or left out. Further columns of the screen follow, without active or inactive calls. Most of these compounds were active or inconclusive in the main read-out, so they are no random draw. The note in brackets gives the kind of curve behind each potency; many fits are weak.

Experiment: qHTS Assay for Modulators of Lamin A Splicing
Conditions: HeLa LMNA splicing GFP/RFP minigene ratio, 48 h
In short: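 S3 HeLa cells stably expressing lamin A-EGFP splicing minigene plus DsRed2, 600 cells/well, 48 h compound exposure at 37C. Laser-scanning cytometry; analysed as GFP (500-530 nm)/RFP (575-640 nm) total intensity ratio; 0.5% DMSO vehicle.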

[1] = measured here: GFP splicing reporter channel
[2] = measured here: RFP viability control channel

SMILES | AC50 [1] | AC50 [2]
Cc1cc2ccccc2c(=O)n1CC(=O)NCCC1=CCCCC1 | 1780 nM [rising, partial curve] | 
CCc1ccccc1NC(=S)/N=C(\N)Nc1nc(C)c2cc(C)ccc2n1 |  | 15800 nM [rising, partial curve]
CCCSc1nnc(NC(=O)Cc2ccc(OC)c(OC)c2)s1 | 282 nM [rising, partial curve, poor fit] | 
COc1cnc(-c2ccccn2)nc1Oc1ccccc1Cl |  | 8910 nM [rising, partial curve]
CCOC(=O)C1(Cc2ccccc2)CCN(Cc2cc(OC)c3c(c2)OCO3)CC1 | 3.16 nM [falling, full curve, poor fit] | 7080 nM [falling, full curve, poor fit]
COc1ccc(C(=O)Nc2ncc3c(n2)CC(c2ccco2)CC3=O)cc1 (stereo not drawn) |  | 200 nM [falling, full curve, poor fit]
CC(C)c1ccc(NC(=O)c2cc(S(=O)(=O)NCCC3=CCCCC3)ccc2F)cc1 | 31600 nM [falling, partial curve, poor fit] | 35500 nM [falling, partial curve, poor fit]
COc1ccc(NC(=O)Cc2ccc(NC(=O)N3CCCCc4ccccc43)cc2)c(OC)c1 | 7940 nM [falling, partial curve, poor fit] | 141 nM [falling, full curve, poor fit]
CCCCCCn1c(N2CCN(c3ccccc3)CC2)nc2c1c(=O)n(C)c(=O)n2C |  | 14100 nM [rising, single point]
O=C(Cc1cccs1)N1CCN(c2nc(-c3ccc(Cl)cc3)cs2)CC1 |  | 25100 nM [rising, single point]
COc1ccc(CNC(=O)CN(C)S(=O)(=O)c2ccc3[nH]c4c(c3c2)CCCC4)cc1 | 63.1 nM [falling, full curve] | 39.8 nM [falling, full curve]
CCOC(=O)C1CCC(CN(Cc2ccc(OC)cc2)S(=O)(=O)c2ccc(F)c(C(=O)Nc3cc(Cl)ccc3OC)c2)CC1 (stereo not drawn) |  | 355 nM [falling, partial curve, poor fit]
CC[C@H](C)[C@@H]1O[C@]2(CC[C@@H]1C)C[C@H]1C[C@H](CC=C(C)[C@@H](O[C@@H]3C[C@H](OC)[C@H](O[C@@H]4C[C@H](OC)[C@H](O)[C@H](C)O4)[C@H](C)O3)[C@@H](C)C=CC=C3CO[C@@H]4[C@@H](O)C(C)=C[C@@H](C(=O)O1)[C@]34O)O2 | 355 nM [falling, partial curve] | 398 nM [falling, partial curve, poor fit]

Some of the entries so far, with each value named.
CCCCCCn1c(N2CCN(c3ccccc3)CC2)nc2c1c(=O)n(C)c(=O)n2C
  AC50 [2]: 14100 nM [rising, single point]
O=C(Cc1cccs1)N1CCN(c2nc(-c3ccc(Cl)cc3)cs2)CC1
  AC50 [2]: 25100 nM [rising, single point]
